Source: patent EP1985624A2 (Bayer Schering Pharma Aktiengesellschaft, priority 2007, dated 2008)

Test: general procedure: Fmoc solid-phase peptide synthesis; Rink amide resin; DCC, DCCI, HOBt
Settings: late stage modification step

Substance: ^19F-Si(tBu)2-C6H4-CH2-CO-Ava--Gln-Trp-Ala-Val-NMeGly-His(3Me)-4-Am,5-MeHpA-Cpa-NH2
- step yield: 41%

Substance: ^19F-Si(iPr)2-C6H4-CH2-CO-Ava--Gln-Trp-Ala-Val-Gly-His(3Me)-4-Am,5-MeHpA-Leu-NH2
- step yield: 30%
